Experimental data: the supplement of paper PMC4604168 (melanoma cell lines)
Some of the results follow. Many values rest on one well or one pass, so single values are uncertain.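 Cells were imaged in 1,536-well plates, and nuclei stained with an antibody against cleaved PARP were counted against all DNA-stained nuclei to give the apoptosis fraction. Screening doses were chosen to leave most cells alive, and resting and induced cleaved-PARP levels differ strongly between cell lines.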

Legend:
Assay in all cases: cleaved PARP positive nuclei fraction relative to DMSO control; melanoma cells; higher = more apoptosis
Settings in all cases: library dose: low library concentration; 72 h
501Mel = tested on: 501Mel
A101D = tested on: A101D
A2058 = tested on: A2058
A375 = tested on: A375
C32 = tested on: C32
CBRC008 = tested on: CBRC008 (line from a melanoma biopsy)
CBRC013 = tested on: CBRC013 (line from a melanoma biopsy)
CBRC014 = tested on: CBRC014 (line from a melanoma biopsy)
CBRC016 = tested on: CBRC016 (line from a melanoma biopsy)
CBRC017 = tested on: CBRC017 (line from a melanoma biopsy)
COLO792 = tested on: COLO792
COLO800 = tested on: COLO800
COLO829 = tested on: COLO829
G361 = tested on: G361
IPC-298 = tested on: IPC-298
IST-MEL1 = tested on: IST-MEL1
LB2518-MEL = tested on: LB2518-MEL
LOXIMVI = tested on: LOXIMVI
MEL-HO = tested on: MEL-HO

Row | SMILES | cleaved PARP positive nuclei fraction (501Mel) | cleaved PARP positive nuclei fraction (A101D) | cleaved PARP positive nuclei fraction (A2058) | cleaved PARP positive nuclei fraction (A375) | cleaved PARP positive nuclei fraction (C32) | cleaved PARP positive nuclei fraction (CBRC008) | cleaved PARP positive nuclei fraction (CBRC013) | cleaved PARP positive nuclei fraction (CBRC014) | cleaved PARP positive nuclei fraction (CBRC016) | cleaved PARP positive nuclei fraction (CBRC017) | cleaved PARP positive nuclei fraction (COLO792) | cleaved PARP positive nuclei fraction (COLO800) | cleaved PARP positive nuclei fraction (COLO829) | cleaved PARP positive nuclei fraction (G361) | cleaved PARP positive nuclei fraction (IPC-298) | cleaved PARP positive nuclei fraction (IST-MEL1) | cleaved PARP positive nuclei fraction (LB2518-MEL) | cleaved PARP positive nuclei fraction (LOXIMVI) | cleaved PARP positive nuclei fraction (MEL-HO)
1 | CC1(C)NC(=O)N(c2ccc([N+](=O)[O-])c(C(F)(F)F)c2)C1=O [nilutamide] + O=C(Nc1cccc(Cl)c1)Nc1ncc(CCNc2ncnc3ccsc23)s1 [SNS314] (first compound 1 µM, partner dose 0.0008 µM) | 86% | 44.4% | 59.1% | 22.9% | 117% | 90.3% | 109% | 82.1% | 75.3% | 90.5% | 78.9% | 81.1% | 50% | 104% | 120% | 99.1% | 99.9% | 44.4% | 115%
2 | OCc1c[nH]c2ccccc12 [Indole-3-carbinol] + CC(C)(C)c1cnc(CSc2cnc(NC(=O)C3CCNCC3)s2)o1 [SNS-032] (first compound 0.8 µM, partner dose 0.01 µM) | 192% | 81.6% | 115% | 325% | 163% | 148% | 77.1% | 399% | 36.7% | 53.6% | 128% | 101% | 174% | 79.3% | 59% | 50.5% | 109% | 106% | 71.3%
3 | Cn1cncc1[C@@](N)(c1ccc(Cl)cc1)c1ccc2c(c1)c(-c1cccc(Cl)c1)cc(=O)n2C [tipifarnib] + O=C(O)c1ccc(-c2c[nH]c3ncc(-c4ccccc4)cc23)cc1C1CCCC1 [GSK650394] (first compound 0.01 µM, partner dose 0.16 µM) | 98.7% | 44.9% | 56.2% | 146% | 16.4% | 179% | 96.2% | 123% | 182% | 145% | 58.3% | 90.2% | 92.3% | 104% | 48.4% | 103% | 233% | 41.2% | 48%
4 | Cn1c(Nc2ccc(C(F)(F)F)cc2)nc2cc(Oc3ccnc(-c4ncc(C(F)(F)F)[nH]4)c3)ccc21 + OCCn1cc(-c2cnc3nnn(Cc4ccc5ncccc5c4)c3n2)cn1 [PF04217903] (first compound 0.08 µM, partner dose 1 µM) | 207% | 147% | 123% | 328% | 38.3% | 192% | 139% | 87.8% | 87.1% | 90.5% | 227% | 68% | 104% | 38.4% | 117% | 164% | 299% | 144% | 96%
5 | Cn1nnc2c(C(N)=O)ncn2c1=O [temozolomide] + CO[C@@H]1[C@H](N(C)C(=O)c2ccccc2)C[C@H]2O[C@]1(C)n1c3ccccc3c3c4c(c5c6ccccc6n2c5c31)C(=O)NC4 [Midostaurin] (first compound 2 µM, partner dose 0.08 µM) | 265% | 191% | 237% | 63.3% | 58.7% | 59% | 65.9% | 105% | 159% | 127% | 169% | 89.8% | 43.6% | 103% | 31.9% | 208% | 93.3% | 85.8% | 88.7%
6 | Cn1nnc2c(C(N)=O)ncn2c1=O [temozolomide] + CC(C)(C)c1cnc(CSc2cnc(NC(=O)C3CCNCC3)s2)o1 [SNS-032] (first compound 2 µM, partner dose 0.01 µM) | 84.4% | 86.4% | 219% | 104% | 53.1% | 141% | 97.4% | 84.2% | 62.1% | 97.6% | 135% | 176% | 105% | 136% | 48% | 157% | 96.1% | 51.9% | 38.1%
7 | C[C@@H]1CCN(C(=O)CC#N)C[C@@H]1N(C)c1ncnc2[nH]ccc12 + CN(C)S(=O)(=O)c1ccc2c(c1)/C(=C/c1cc3c([nH]1)CCCC3)C(=O)N2 [SU6656] (first compound 1 µM, partner dose 0.4 µM) | 95.2% | 95.4% | 119% | 54.1% | 70.4% | 44.7% | 107% | 103% | 74.3% | 69.7% | 75.5% | 42.9% | 177% | 144% | 45.5% | 52.1% | 109% | 94.5% | 145%
8 | C#Cc1cccc(Nc2ncnc3cc(OCCOC)c(OCCOC)cc23)c1 [erlotinib] + C=CCn1c(=O)c2cnc(Nc3ccc(N4CCN(C)CC4)cc3)nc2n1-c1cccc(C(C)(C)O)n1 [MK1775] (first compound 0.8 µM, partner dose 0.02 µM) | 308% | 57.9% | 73.2% | 221% | 25.1% | 163% | 179% | 124% | 46.2% | 153% | 216% | 83.7% | 86.5% | 132% | 65.5% | 102% | 64.9% | 69.2% | 73.7%
9 | C#Cc1cccc(Nc2ncnc3cc(OCCOC)c(OCCOC)cc23)c1 [erlotinib] + NCC(=O)Nc1ccc(-n2nc(C(F)(F)F)cc2-c2ccc3c(ccc4ccccc43)c2)cc1 [OSU03012] (first compound 0.8 µM, partner dose 1 µM) | 192% | 102% | 89% | 3640% | 44.4% | 155% | 141% | 104% | 108% | 199% | 58.3% | 144% | 58.2% | 83.4% | 108% | 212% | 152% | 15.8% | 139%
10 | C=CCNC1=C2C[C@@H](C)C[C@H](OC)[C@H](O)[C@@H](C)/C=C(\C)[C@H](OC(N)=O)[C@@H](OC)/C=C\C=C(/C)C(=O)NC(=CC1=O)C2=O [Tanespimycin] + CC(C)(C)c1cnc(CSc2cnc(NC(=O)C3CCNCC3)s2)o1 [SNS-032] (first compound 0.002 µM, partner dose 0.01 µM) | 99.7% | 145% | 50% | 126% | 495% | 76% | 126% | 74.8% | 81.9% | 91.7% | 161% | 117% | 84.9% | 126% | 44.6% | 129% | 121% | 53.9% | 265%
11 | NC(=O)Nc1cc(-c2cccc(F)c2)sc1C(=O)N[C@H]1CCCNC1 + CN(C)S(=O)(=O)c1ccc2c(c1)/C(=C/c1cc3c([nH]1)CCCC3)C(=O)N2 [SU6656] (first compound 0.02 µM, partner dose 0.4 µM) | 75.7% | 128% | 117% | 414% | 733% | 67.1% | 133% | 89.9% | 35% | 114% | 149% | 57.9% | 61% | 86.5% | 201% | 48.1% | 92.4% | 76.9% | 70%
12 | Cn1c(Nc2ccc(C(F)(F)F)cc2)nc2cc(Oc3ccnc(-c4ncc(C(F)(F)F)[nH]4)c3)ccc21 + CC(C)(C)c1cnc(CSc2cnc(NC(=O)C3CCNCC3)s2)o1 [SNS-032] (first compound 0.08 µM, partner dose 0.01 µM) | 119% | 88.9% | 93.1% | 546% | 66.9% | 331% | 121% | 117% | 98.7% | 282% | 556% | 110% | 157% | 62.2% | 239% | 327% | 342% | 57.9% | 130%
13 | O=C(Nc1cccc(Cl)c1)Nc1ncc(CCNc2ncnc3ccsc23)s1 + CN(C)S(=O)(=O)c1ccc2c(c1)/C(=C/c1cc3c([nH]1)CCCC3)C(=O)N2 [SU6656] (first compound 0.0008 µM, partner dose 0.4 µM) | 93.6% | 83.1% | 32.5% | 123% | 51.4% | 63.3% | 117% | 102% | 104% | 93% | 139% | 18% | 67.6% | 167% | 143% | 141% | 86.2% | 102% | 37.5%
14 | C=CCn1c(=O)c2cnc(Nc3ccc(N4CCN(C)CC4)cc3)nc2n1-c1cccc(C(C)(C)O)n1 + CO[C@@H]1[C@H](N(C)C(=O)c2ccccc2)C[C@H]2O[C@]1(C)n1c3ccccc3c3c4c(c5c6ccccc6n2c5c31)C(=O)NC4 [Midostaurin] (first compound 0.02 µM, partner dose 0.08 µM) | 98.3% | 324% | 157% | 52.6% | 188% | 163% | 120% | 131% | 181% | 103% | 47.5% | 202% | 116% | 76.5% | 97.7% | 219% | 111% | 34.2% | 73.2%
15 | OCCn1cc(-c2cnc3nnn(Cc4ccc5ncccc5c4)c3n2)cn1 + O=C(Nc1cccc(Cl)c1)Nc1ncc(CCNc2ncnc3ccsc23)s1 [SNS314] (first compound 1 µM, partner dose 0.0008 µM) | 370% | 33.4% | 90% | 41.9% | 105% | 33.6% | 81.7% | 71.8% | 27% | 70% | 77.2% | 83.4% | 94% | 105% | 58.8% | 66.2% | 101% | 56.5% | 67%
16 | C[C@]1(c2nc3c(C(N)=O)cccc3[nH]2)CCCN1 [Veliparib] + NCC(=O)Nc1ccc(-n2nc(C(F)(F)F)cc2-c2ccc3c(ccc4ccccc43)c2)cc1 [OSU03012] (first compound 1.4 µM, partner dose 1 µM) | 954% | 64.6% | 69.1% | 3850% | 41.8% | 100% | 96.1% | 104% | 84.7% | 239% | 180% | 60.4% | 102% | 113% | 146% | 96.1% | 47.6% | 108% | 63.3%
17 | CC(=O)c1c(C)c2cnc(Nc3ccc(N4CCNCC4)cn3)nc2n(C2CCCC2)c1=O [palbociclib] + OCCn1cc(-c2cnc3nnn(Cc4ccc5ncccc5c4)c3n2)cn1 [PF04217903] (first compound 0.04 µM, partner dose 1 µM) | 265% | 96.6% | 157% | 237% | 121% | 174% | 112% | 85% | 116% | 138% | 157% | 39.3% | 199% | 84.8% | 52.8% | 122% | 118% | 244% | 71.9%

Some of the entries above in a different format:
Row,SMILES,cleaved PARP positive nuclei fraction (501Mel),cleaved PARP positive nuclei fraction (A101D),cleaved PARP positive nuclei fraction (A2058),cleaved PARP positive nuclei fraction (A375),cleaved PARP positive nuclei fraction (C32),cleaved PARP positive nuclei fraction (CBRC008),cleaved PARP positive nuclei fraction (CBRC013),cleaved PARP positive nuclei fraction (CBRC014),cleaved PARP positive nuclei fraction (CBRC016),cleaved PARP positive nuclei fraction (CBRC017),cleaved PARP positive nuclei fraction (COLO792),cleaved PARP positive nuclei fraction (COLO800),cleaved PARP positive nuclei fraction (COLO829),cleaved PARP positive nuclei fraction (G361),cleaved PARP positive nuclei fraction (IPC-298),cleaved PARP positive nuclei fraction (IST-MEL1),cleaved PARP positive nuclei fraction (LB2518-MEL),cleaved PARP positive nuclei fraction (LOXIMVI),cleaved PARP positive nuclei fraction (MEL-HO)
10,"C=CCNC1=C2C[C@@H](C)C[C@H](OC)[C@H](O)[C@@H](C)/C=C(\C)[C@H](OC(N)=O)[C@@H](OC)/C=C\C=C(/C)C(=O)NC(=CC1=O)C2=O [Tanespimycin] + CC(C)(C)c1cnc(CSc2cnc(NC(=O)C3CCNCC3)s2)o1 [SNS-032] (first compound 0.002 µM, partner dose 0.01 µM)",99.7%,145%,50%,126%,495%,76%,126%,74.8%,81.9%,91.7%,161%,117%,84.9%,126%,44.6%,129%,121%,53.9%,265%
11,"NC(=O)Nc1cc(-c2cccc(F)c2)sc1C(=O)N[C@H]1CCCNC1 + CN(C)S(=O)(=O)c1ccc2c(c1)/C(=C/c1cc3c([nH]1)CCCC3)C(=O)N2 [SU6656] (first compound 0.02 µM, partner dose 0.4 µM)",75.7%,128%,117%,414%,733%,67.1%,133%,89.9%,35%,114%,149%,57.9%,61%,86.5%,201%,48.1%,92.4%,76.9%,70%
12,"Cn1c(Nc2ccc(C(F)(F)F)cc2)nc2cc(Oc3ccnc(-c4ncc(C(F)(F)F)[nH]4)c3)ccc21 + CC(C)(C)c1cnc(CSc2cnc(NC(=O)C3CCNCC3)s2)o1 [SNS-032] (first compound 0.08 µM, partner dose 0.01 µM)",119%,88.9%,93.1%,546%,66.9%,331%,121%,117%,98.7%,282%,556%,110%,157%,62.2%,239%,327%,342%,57.9%,130%
